The subject of experiment [1] is Danio rerio larva rod photoreceptor outer segment. In words: rod outer segment growth distance Dg, difference from same-week DMSO control mean; higher = more outer segment growth. The following applies: 20 µM; treatment time: 4 days (6-10 dpf).
Experiment [2] shares this test system. The experiment is described as follows: rod outer segment shedding distance Ds, difference from same-week DMSO control mean; higher = less outer segment shedding. The following applies: 20 µM; treatment time: 4 days (6-10 dpf).

Structures are written as SMILES. Where a name gives a salt, the structure may show the parent alone. ± gives the uncertainty stated by the source. This is one part of the list. Part of the spread comes from offsets between plates or batches.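 Larvae carried a heat-shock-induced fluorescent stripe in rod outer segments, set at 6 dpf; the shedding distance runs from this stripe to the outer segment tip, measured in confocal stacks, about three fish per compound. The controls got 0.2% DMSO vehicle, and the paper flagged compounds with at least a 20% change against the same-week control and p < 0.001 (Dunnett test on mixed-effects models).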

In the case of `CC(C)(C)[C@]1(O)CC2OC(=O)CC23C(=O)OC2OC(=O)[C@H](O)C231` (some centres undefined) [Bilobalide], the “rod outer segment growth distance Dg” value in experiment [1] came out at 0.39 ± 0.36 um. In addition, the “rod outer segment shedding distance Ds” value in experiment [2] is 0.27 ± 0.37 um.

Take `C=C1C[C@@H]2[C@H](CC[C@]3(C)C(=O)CC[C@@H]23)[C@@]2(C)C=CC(=O)C=C12` [Exemestane]: in experiment [1], the “rod outer segment growth distance Dg” value was -1.24 ± 0.19 um. In addition, in experiment [2], the “rod outer segment shedding distance Ds” value is -1.86 ± 0.27 um.

On to `COC1=C[C@@H]2[C@@H]3Cc4ccc(OC)c(O)c4[C@]2(CCN3C)CC1=O` [Sinomenine], for which the “rod outer segment growth distance Dg” value in experiment [1] came to 0.22 ± 0.24 um. The “rod outer segment shedding distance Ds” value in experiment [2] is 0.87 ± 0.27 um.

As for `CCN1CCN(C(=O)Cc2ccc(Nc3ncc(F)c(Nc4ccc(C(=O)Nc5ccccc5Cl)cc4)n3)cc2)CC1` [Aurora A Inhibitor I], the “rod outer segment growth distance Dg” value in experiment [1] is -0.64 ± 0.15 um. For the same compound, the “rod outer segment shedding distance Ds” value in experiment [2] turned out to be 0.24 ± 0.18 um.

`COc1cc(OC)c(OC)cc1C=O` [Asaraldehyde]: the “rod outer segment growth distance Dg” value in experiment [1] was -0.75 ± 0.2 um. The “rod outer segment shedding distance Ds” value in experiment [2] is -0.43 ± 0.18 um.

In the case of `O=C1CCC[C@@H]2[C@H]3CCCN4CCC[C@@H](CN12)[C@@H]34` [(+)-Matrine], the “rod outer segment growth distance Dg” value in experiment [1] was -0.7 ± 0.33 um. For the same compound, the “rod outer segment shedding distance Ds” value in experiment [2] is 0.19 ± 0.32 um.

As for `O=c1ccc2cc(O[C@@H]3O[C@H](CO)[C@@H](O)[C@H](O)[C@H]3O)c(O)cc2o1` [Esculin], the “rod outer segment growth distance Dg” value in experiment [1] is 0.41 ± 0.25 um. Also, in experiment [2], the “rod outer segment shedding distance Ds” value is -0.46 ± 0.37 um.

Regarding `Cc1c(N)nc(C(CC(N)=O)NCC(N)C(N)=O)nc1C(=O)NC(C(=O)NC(C)C(O)C(C)C(=O)NC(C(=O)NCCc1nc(-c2nc(C(=O)NCCC[S+](C)C)cs2)cs1)C(C)O)C(O[C@@H]1O[C@@H](CO)[C@@H](O)[C@H](O)[C@@H]1O[C@H]1O[C@H](CO)[C@@H](O)[C@H](OC(N)=O)[C@@H]1O)c1cnc[nH]1` (some centres undefined) [Bleomycin Sulfate], in experiment [1], the “rod outer segment growth distance Dg” value turned out to be 0.15 ± 0.19 um. Moreover, the “rod outer segment shedding distance Ds” value in experiment [2] was -0.64 ± 0.2 um.

Turning to `COc1ccc(C(CN(C)C)C2(O)CCCCC2)cc1` (centres undefined) [Venlafaxine], in experiment [1], the “rod outer segment growth distance Dg” value is 0.42 ± 0.17 um. In addition, in experiment [2], the “rod outer segment shedding distance Ds” value is -0.42 ± 0.2 um.

As for `Cn1c(CCCC(=O)O)nc2cc(N(CCCl)CCCl)ccc21` [Bendamustine HCl], the “rod outer segment growth distance Dg” value in experiment [1] was 0.38 ± 0.18 um. For the same compound, the “rod outer segment shedding distance Ds” value in experiment [2] is -0.73 ± 0.2 um.

On to `O=C(Oc1ccc([N+](=O)[O-])cc1)N1CCC(C(O)(c2ccc3c(c2)OCO3)c2ccc3c(c2)OCO3)CC1`, for which the “rod outer segment growth distance Dg” value in experiment [1] is 0.63 ± 0.15 um. The “rod outer segment shedding distance Ds” value in experiment [2] is -0.07 ± 0.12 um.

With `N.N.[Cl][Pt][Cl]` [Cisplatin], the “rod outer segment growth distance Dg” value in experiment [1] was -0.47 ± 0.17 um. Moreover, the “rod outer segment shedding distance Ds” value in experiment [2] is -0.03 ± 0.18 um.

As to `O=P1(NCCCl)OCCCN1CCCl` (centres undefined) [Ifosfamide], in experiment [1], the “rod outer segment growth distance Dg” value came out at 0.7 ± 0.18 um. Besides, in experiment [2], the “rod outer segment shedding distance Ds” value was -0.15 ± 0.15 um.

Consider `CC[C@@H]1[C@@H](C)O[C@@](O)([C@@H](C)[C@H](O)[C@H](C)[C@H]2OC(=O)/C=C/C=C/[C@H](C)[C@@H]([C@@H](C)[C@@H](O)[C@H](C)[C@@]3(O)C[C@@H](O[C@H]4C[C@H](O)[C@H](O)[C@H](C)O4)[C@H](CC)[C@@H](C)O3)OC(=O)/C=C/C=C/[C@@H]2C)C[C@H]1O[C@H]1C[C@H](O)[C@H](O)[C@H](C)O1` [Elaiophylin], for which, in experiment [1], the “rod outer segment growth distance Dg” value is -1.18 ± 0.18 um. For the same compound, the “rod outer segment shedding distance Ds” value in experiment [2] is -0.38 ± 0.17 um.

As to `O=S(=O)(F)Cc1ccccc1`, in experiment [1], the “rod outer segment growth distance Dg” value was -0.2 ± 0.15 um. For the same compound, the “rod outer segment shedding distance Ds” value in experiment [2] turned out to be 0.71 ± 0.15 um.

For the compound `CN1C(=O)CCS(=O)(=O)C1c1ccc(Cl)cc1` (centres undefined) [Chlormezanone], in experiment [1], the “rod outer segment growth distance Dg” value is -0.32 ± 0.26 um. Also, the “rod outer segment shedding distance Ds” value in experiment [2] was -1.35 ± 0.32 um.

On to `CN(C)[C@@H]1C(=O)C(C(N)=O)=C(O)[C@@]2(O)C(=O)C3=C(O)c4c(O)cccc4[C@@](C)(O)[C@H]3[C@H](O)[C@@H]12` [Oxytetracycline (Terramycin)], for which the “rod outer segment growth distance Dg” value in experiment [1] is -0.96 ± 0.21 um. Also, the “rod outer segment shedding distance Ds” value in experiment [2] was -0.16 ± 0.12 um.

Source of the values: the supplement of paper PMC6143611.
